Experimental data taken from publication PMC4800423.
No constants are given. Whether binding was seen depends on the method and setting. For part of these data: In cells and extracts the contact can be indirect. Where a sequence is shown, tags or fusion partners need not be part of it.

B1: Est2 (telomerase reverse transcriptase domain-containing protein), two-hybrid fusions (enzyme, UniProt Q06163 1-884)
chain: MKILFEFIQDKLDIDLQTNSTYKENLKCGHFNGLDEILTTCFALPNSRKIALPCLPGDLSHKAVIDHCIIYLLTGELYNNVLTFGYKIARNEDVNNSLFCHSANVNVTLLKGAAWKMFHSLVGTYAFVDLLINYTVIQFNGQFFTQIVGNRCNEPHLPPKWAQRSSSSSATAAQIKQLTEPVTNKQFLHKLNINSSSFFPYSKILPSSSSIKKLTDLREAIFPTNLVKIPQRLKVRINLTLQKLLKRHKRLNYVSILNSICPPLEGTVLDLSHLSRQSPKERVLKFIIVILQKLLPQEMFGSKKNKGKIIKNLNLLLSLPLNGYLPFDSLLKKLRLKDFRWLFISDIWFTKHNFENLNQLAICFISWLFRQLIPKIIQTFFYCTEISSTVTIVYFRHDTWNKLITPFIVEYFKTYLVENNVCRNHNSYTLSNFNHSKMRIIPKKSNNEFRIIAIPCRGADEEEFTIYKENHKNAIQPTQKILEYLRNKRPTSFTKIYSPTQIADRIKEFKQRLLKKFNNVLPELYFMKFDVKSCYDSIPRMECMRILKDALKNENGFFVRSQYFFNTNTGVLKLFNVVNASRVPKPYELYIDNVRTVHLSNQDVINVVEMEIFKTALWVEDKCYIREDGLFQGSSLSAPIVDLVYDDLLEFYSEFKASPSQDTLILKLADDFLIISTDQQQVINIKKLAMGGFQKYNAKANRDKILAVSSQSDDDTVIQFCAMHIFVKELEVWKHSSTMNNFHIRSKSSKGIFRSLIALFNTRISYKTIDTNLNSTNTVLMQIDHVVKNISECYKSAFKDLSINVTQNMQFHSFLQRIIEMTVSGCPITKCDPLIEYEVRFTILNGFLESLSSNTSKFKDNIILLRKEIQHLQAYIYIYIHIVN
B2: Est2 tagged with 3xFLAG or 13xMyc (Est2-FLAG and Est2-myc co-expressed) (enzyme, UniProt Q06163 1-884)
chain: B1 chain

Experiments:
[1] = target: Est2 (telomerase reverse transcriptase domain-containing protein), two-hybrid fusions (S. cerevisiae) (UniProt Q06163); experiment: two-hybrid; yeast two-hybrid; Est2 fused to the Gal4 activation domain and DNA binding domain separately
[2] = target: Est2 tagged with 3xFLAG or 13xMyc (Est2-FLAG and Est2-myc co-expressed) (S. cerevisiae) (UniProt Q06163); experiment: co-IP; sequential: anti-FLAG (M2 agarose), elution with 3xFLAG peptide, then anti-Myc immunoprecipitation; TLC1 RNA in the final immunoprecipitate measured by qRT-PCR as a proxy; strains yEHB22,825-827
[3] = target: Est2 tagged with 3xFLAG or 13xMyc (Est2-FLAG and Est2-myc co-expressed) (S. cerevisiae) (UniProt Q06163); experiment: co-IP; Est2-FLAG and Est2-myc co-expressed in yeast; whole cell lysates; read out by Western blot

Row | Binder | binding [1] | binding [2] | binding [3]
1 | B1 | no binding | – | –
2 | B2 | – | no binding | no binding
